Source: PubChem BioAssay AID1224830 (NIAID, 2016)

Aim: 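Host factors that control LPS-induced TNF expression in human macrophages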 (primary screen)
Cell system: human THP-1 monocytic leukaemia cells, TNF dual-luciferase reporter clone, PMA-differentiated to macrophage-like cells
Reagents: siRNA pool against human genes, 50 nM
Timing: LPS for 4 h, given about 3 days after siRNA transfection
Conditions: bacterial LPS (TLR4 ligand), 10 ng/ml
Measurement: 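TNF firefly reporter luminescence divided by renilla, normalised to the plate median, then turned into a robust z-score for each replicate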
Scale: TNF reporter robust z-score: higher = stronger TNF reporter response to LPS
Active means: 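a well is active when its z-score exceeds 2.8 or falls below -1.5; control wells carry no call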
This is a random part of about 18,000 deposited reagents. In the full data, about 2,900 (16%) were called active. 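Calls are made per well; low scores hint the gene aids the LPS response, high scores that it dampens it.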 Repeated entries: four replicate wells of each siRNA pool. No sequences are given here.

Target gene	TNF reporter robust z-score	call
BBS12	-0.53	inactive
BBS12	0.81	inactive
BBS12	-0.19	inactive
BBS12	-0.24	inactive
GCHFR	1.02	inactive
GCHFR	0.09	inactive
GCHFR	0.39	inactive
GCHFR	0.4	inactive
MTURN	0.68	inactive
MTURN	1.58	inactive
MTURN	-0.26	inactive
MTURN	0.39	inactive
MRPL2	0.59	inactive
MRPL2	0.39	inactive
MRPL2	-0.64	inactive
MRPL2	-0.17	inactive
OR6K2	0.14	inactive
OR6K2	0.34	inactive
OR6K2	-0.05	inactive
OR6K2	0.97	inactive
UTY	1.09	inactive
UTY	2.33	inactive
UTY	2.02	inactive
UTY	1.78	inactive
TRPT1	-1.28	inactive
TRPT1	-0.92	inactive
TRPT1	-1.57	active
TRPT1	-0.93	inactive
PIP	-0.95	inactive
PIP	-0.84	inactive
PIP	-1.22	inactive
PIP	-0.19	inactive

Called active, of those listed so far:
Target gene	TNF reporter robust z-score	call
TRPT1	-1.57	active

The listing continues:
Target gene	TNF reporter robust z-score	call
NUMBL	-0.66	inactive
NUMBL	-0.99	inactive
NUMBL	-0.38	inactive
NUMBL	-1.53	active
ITM2C	-0.45	inactive
ITM2C	1.02	inactive
ITM2C	1.24	inactive
ITM2C	1.38	inactive
TBCCD1	-0.84	inactive
TBCCD1	-0.72	inactive
TBCCD1	-1.06	inactive
TBCCD1	-1.22	inactive
NEUROD6	-0.52	inactive
NEUROD6	-0.58	inactive
NEUROD6	-0.29	inactive
NEUROD6	-0.6	inactive
